What all share (assay): log2 fold change, soluble protein after heating vs DMSO (PISA); higher = thermal stabilisation; K562 lysate, 10 uM; active = over 0.2 and 3.5 SD of the protein, either way, in both replicates (recomputed)
Compound in one experiment: O=C(CCCCCCC(=O)Nc1ccccc1)NO [vorinostat]
The essentials: (§1)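 Log-two fold change in thermal stability relative to solvent controls is reported from duplicates. For each sample, crude K562 extract from dounce-homogenised pellets in PBS pH 7.4 with 1 mM MgCl2, at 1 mg/mL protein, was treated with 10 μM compound for 30 min. Aliquots heated for 3 min across 48°C-58°C were pooled, brought to 0.5% NP-40 at 4°C and cleared at 21,000xg for 90 min. The supernatant was quantified by TMTpro 16plex LC-MS/MS with channel sums equalised.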

Sequences of proteins named here, by UniProt entry; tags and fusion partners are left off. A change or cut given only in a name is not applied to a line headed by its entry.
UniProt H7BZ55: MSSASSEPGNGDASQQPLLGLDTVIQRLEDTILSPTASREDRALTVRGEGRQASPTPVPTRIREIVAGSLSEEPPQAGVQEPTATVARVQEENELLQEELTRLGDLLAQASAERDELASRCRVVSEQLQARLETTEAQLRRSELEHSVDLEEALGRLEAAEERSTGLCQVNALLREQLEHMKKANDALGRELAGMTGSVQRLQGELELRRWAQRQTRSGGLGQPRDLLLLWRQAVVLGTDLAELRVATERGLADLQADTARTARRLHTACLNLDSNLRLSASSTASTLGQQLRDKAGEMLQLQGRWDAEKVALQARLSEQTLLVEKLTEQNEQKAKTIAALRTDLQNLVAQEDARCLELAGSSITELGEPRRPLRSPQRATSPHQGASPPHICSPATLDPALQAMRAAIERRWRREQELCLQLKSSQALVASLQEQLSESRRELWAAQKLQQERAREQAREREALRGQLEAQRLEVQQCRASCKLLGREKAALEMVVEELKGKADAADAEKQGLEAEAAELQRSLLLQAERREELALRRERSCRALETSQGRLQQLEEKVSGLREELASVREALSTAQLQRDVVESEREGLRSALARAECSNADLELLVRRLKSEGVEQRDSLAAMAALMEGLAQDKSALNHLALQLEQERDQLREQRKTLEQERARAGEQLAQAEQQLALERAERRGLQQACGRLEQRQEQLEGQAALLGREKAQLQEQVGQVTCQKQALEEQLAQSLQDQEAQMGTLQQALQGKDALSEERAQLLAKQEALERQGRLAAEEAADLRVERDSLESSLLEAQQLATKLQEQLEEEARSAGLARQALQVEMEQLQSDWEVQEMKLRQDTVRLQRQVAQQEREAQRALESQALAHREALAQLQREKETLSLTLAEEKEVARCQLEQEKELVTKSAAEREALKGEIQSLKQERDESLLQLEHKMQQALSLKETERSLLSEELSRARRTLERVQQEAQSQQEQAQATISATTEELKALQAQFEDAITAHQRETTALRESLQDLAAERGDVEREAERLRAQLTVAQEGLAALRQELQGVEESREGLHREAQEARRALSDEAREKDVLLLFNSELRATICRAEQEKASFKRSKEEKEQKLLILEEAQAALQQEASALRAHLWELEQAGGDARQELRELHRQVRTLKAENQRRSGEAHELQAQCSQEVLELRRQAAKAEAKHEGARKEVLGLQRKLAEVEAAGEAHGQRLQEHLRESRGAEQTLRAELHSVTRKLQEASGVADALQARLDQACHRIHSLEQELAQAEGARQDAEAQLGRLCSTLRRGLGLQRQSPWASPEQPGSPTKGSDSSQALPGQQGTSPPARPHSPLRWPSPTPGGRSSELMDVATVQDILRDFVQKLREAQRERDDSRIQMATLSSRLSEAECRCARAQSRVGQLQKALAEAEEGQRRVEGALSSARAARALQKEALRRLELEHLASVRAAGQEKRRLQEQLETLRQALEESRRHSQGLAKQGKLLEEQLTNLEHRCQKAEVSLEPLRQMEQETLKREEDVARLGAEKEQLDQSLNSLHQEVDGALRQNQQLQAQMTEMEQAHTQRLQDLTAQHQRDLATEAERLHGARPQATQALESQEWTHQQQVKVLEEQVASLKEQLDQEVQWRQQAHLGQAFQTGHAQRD
UniProt Q9NSA3: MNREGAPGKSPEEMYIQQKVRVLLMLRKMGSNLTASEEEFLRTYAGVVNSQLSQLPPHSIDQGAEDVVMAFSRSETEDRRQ
UniProt Q9UBX1: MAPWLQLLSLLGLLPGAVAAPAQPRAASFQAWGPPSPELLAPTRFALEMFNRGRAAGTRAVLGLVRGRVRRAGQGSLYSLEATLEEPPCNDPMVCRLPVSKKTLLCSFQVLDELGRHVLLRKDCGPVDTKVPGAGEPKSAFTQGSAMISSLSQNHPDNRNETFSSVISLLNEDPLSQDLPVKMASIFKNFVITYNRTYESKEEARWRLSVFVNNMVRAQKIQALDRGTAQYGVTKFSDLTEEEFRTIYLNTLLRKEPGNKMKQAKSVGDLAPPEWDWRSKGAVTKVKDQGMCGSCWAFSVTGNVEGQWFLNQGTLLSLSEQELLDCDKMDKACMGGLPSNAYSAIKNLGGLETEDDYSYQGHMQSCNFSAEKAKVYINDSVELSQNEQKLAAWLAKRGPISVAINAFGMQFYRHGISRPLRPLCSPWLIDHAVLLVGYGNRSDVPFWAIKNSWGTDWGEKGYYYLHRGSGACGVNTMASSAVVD
UniProt Q8IWT3: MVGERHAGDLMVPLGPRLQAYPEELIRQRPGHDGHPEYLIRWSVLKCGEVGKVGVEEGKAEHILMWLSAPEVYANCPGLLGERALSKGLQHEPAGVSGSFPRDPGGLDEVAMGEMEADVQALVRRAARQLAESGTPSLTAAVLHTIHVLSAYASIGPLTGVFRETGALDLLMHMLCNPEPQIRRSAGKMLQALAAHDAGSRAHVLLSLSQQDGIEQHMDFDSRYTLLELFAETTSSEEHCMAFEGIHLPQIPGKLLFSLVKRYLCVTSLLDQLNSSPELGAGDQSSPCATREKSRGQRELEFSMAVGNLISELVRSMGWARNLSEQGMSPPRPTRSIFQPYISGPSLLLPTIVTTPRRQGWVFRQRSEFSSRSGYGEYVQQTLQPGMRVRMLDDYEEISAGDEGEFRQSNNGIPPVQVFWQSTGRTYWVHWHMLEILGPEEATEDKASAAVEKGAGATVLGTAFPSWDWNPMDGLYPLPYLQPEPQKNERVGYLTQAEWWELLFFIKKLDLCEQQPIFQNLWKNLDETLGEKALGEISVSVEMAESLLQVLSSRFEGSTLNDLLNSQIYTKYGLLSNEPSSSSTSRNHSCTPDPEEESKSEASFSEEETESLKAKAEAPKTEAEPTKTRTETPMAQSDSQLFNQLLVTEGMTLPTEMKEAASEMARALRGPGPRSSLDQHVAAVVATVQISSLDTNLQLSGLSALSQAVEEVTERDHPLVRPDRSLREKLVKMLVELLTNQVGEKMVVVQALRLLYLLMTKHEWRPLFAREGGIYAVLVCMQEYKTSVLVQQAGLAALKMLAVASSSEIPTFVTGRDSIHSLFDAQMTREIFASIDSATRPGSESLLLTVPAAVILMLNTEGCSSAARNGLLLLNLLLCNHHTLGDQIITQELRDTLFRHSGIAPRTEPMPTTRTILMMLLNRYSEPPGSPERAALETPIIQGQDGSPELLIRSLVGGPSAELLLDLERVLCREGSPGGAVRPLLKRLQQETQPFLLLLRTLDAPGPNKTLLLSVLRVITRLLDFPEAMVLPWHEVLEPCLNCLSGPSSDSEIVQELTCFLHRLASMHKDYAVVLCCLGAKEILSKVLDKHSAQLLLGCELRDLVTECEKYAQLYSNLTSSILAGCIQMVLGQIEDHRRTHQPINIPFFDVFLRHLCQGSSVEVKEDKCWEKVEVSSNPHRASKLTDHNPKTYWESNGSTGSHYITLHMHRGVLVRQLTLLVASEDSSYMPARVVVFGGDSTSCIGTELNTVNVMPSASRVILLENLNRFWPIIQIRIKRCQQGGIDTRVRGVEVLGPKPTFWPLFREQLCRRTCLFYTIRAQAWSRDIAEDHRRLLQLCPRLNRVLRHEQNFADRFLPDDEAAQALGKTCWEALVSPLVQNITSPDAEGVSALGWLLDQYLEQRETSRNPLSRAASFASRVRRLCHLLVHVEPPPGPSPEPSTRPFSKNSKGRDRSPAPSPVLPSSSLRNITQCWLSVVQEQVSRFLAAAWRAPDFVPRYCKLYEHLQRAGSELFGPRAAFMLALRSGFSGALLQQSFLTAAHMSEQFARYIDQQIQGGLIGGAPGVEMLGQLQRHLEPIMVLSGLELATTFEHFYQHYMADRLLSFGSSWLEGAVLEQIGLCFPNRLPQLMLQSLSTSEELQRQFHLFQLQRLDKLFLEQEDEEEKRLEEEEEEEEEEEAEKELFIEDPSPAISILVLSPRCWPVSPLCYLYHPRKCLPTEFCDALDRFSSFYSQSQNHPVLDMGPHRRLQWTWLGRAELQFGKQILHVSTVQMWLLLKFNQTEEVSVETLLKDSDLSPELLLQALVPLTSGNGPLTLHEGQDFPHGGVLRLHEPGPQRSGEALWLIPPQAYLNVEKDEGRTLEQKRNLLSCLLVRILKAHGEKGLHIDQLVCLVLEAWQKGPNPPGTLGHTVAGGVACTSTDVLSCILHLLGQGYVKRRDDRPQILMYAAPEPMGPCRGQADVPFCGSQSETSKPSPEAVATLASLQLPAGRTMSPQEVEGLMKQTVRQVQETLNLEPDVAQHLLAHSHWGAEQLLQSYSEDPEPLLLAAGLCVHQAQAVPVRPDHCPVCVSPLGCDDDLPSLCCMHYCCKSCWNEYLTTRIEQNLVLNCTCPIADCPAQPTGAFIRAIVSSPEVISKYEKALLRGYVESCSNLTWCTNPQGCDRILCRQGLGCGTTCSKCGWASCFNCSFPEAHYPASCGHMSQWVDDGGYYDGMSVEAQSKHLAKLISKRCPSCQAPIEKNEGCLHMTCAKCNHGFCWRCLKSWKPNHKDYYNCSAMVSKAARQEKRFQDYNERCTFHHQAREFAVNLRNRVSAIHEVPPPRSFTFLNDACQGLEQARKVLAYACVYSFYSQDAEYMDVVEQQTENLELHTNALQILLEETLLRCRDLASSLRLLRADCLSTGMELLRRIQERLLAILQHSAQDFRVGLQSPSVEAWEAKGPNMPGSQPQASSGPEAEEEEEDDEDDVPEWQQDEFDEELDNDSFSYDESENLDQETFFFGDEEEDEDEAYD
UniProt Q03060: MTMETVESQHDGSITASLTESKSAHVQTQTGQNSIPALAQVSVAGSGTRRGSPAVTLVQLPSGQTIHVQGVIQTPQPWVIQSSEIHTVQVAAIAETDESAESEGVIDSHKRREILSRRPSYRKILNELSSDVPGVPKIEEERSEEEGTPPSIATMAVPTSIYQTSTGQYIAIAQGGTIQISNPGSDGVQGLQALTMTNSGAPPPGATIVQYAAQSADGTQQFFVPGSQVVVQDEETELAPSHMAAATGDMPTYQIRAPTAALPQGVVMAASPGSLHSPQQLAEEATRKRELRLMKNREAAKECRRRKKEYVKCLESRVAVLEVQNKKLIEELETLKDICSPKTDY
UniProt O95715: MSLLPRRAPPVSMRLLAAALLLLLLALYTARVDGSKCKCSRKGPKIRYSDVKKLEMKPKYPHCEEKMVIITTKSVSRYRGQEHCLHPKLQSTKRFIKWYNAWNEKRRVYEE
UniProt P01036: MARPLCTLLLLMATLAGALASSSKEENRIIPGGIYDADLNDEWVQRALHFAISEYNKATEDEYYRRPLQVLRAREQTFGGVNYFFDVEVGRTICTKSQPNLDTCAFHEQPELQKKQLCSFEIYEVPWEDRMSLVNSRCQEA
UniProt Q96DE9: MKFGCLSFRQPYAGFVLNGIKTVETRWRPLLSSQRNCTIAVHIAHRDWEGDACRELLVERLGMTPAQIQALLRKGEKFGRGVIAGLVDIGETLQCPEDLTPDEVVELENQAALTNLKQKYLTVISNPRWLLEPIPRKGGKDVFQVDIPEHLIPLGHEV
UniProt Q9H175: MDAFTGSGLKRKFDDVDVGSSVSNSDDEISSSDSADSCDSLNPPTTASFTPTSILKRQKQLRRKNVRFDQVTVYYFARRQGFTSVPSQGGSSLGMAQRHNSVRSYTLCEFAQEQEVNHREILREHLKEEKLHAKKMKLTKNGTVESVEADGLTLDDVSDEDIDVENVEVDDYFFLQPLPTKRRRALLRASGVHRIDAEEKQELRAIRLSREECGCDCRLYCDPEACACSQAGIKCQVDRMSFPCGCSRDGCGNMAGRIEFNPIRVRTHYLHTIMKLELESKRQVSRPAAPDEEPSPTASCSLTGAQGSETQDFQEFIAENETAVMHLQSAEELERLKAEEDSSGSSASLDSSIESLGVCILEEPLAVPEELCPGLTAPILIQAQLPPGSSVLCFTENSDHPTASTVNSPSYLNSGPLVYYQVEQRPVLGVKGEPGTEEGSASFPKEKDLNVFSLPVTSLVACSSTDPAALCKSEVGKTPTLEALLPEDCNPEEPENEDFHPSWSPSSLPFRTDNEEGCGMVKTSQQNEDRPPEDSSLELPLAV
UniProt Q9GZU7: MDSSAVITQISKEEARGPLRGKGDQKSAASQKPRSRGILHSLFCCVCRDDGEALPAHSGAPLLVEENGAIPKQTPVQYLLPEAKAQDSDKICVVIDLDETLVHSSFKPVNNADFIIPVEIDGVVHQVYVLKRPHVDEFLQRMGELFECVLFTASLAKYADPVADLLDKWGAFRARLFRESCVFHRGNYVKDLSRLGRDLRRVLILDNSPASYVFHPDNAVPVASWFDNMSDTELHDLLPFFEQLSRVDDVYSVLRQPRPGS
UniProt Q9UJA2: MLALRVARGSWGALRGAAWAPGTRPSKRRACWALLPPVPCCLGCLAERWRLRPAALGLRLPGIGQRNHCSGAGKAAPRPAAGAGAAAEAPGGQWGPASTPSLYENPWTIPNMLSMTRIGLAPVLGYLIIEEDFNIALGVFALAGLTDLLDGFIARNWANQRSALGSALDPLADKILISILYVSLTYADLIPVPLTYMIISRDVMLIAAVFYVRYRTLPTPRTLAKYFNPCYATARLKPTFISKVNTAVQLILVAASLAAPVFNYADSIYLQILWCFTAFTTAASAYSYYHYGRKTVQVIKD

Compound in the next experiment: O=C(O)c1ccc2c(c1)nc(Nc1cccc(Cl)c1)c1ccncc12 [silmitasertib]
The essentials:
as §1

Compound in experiment [1]: O=C1NC(=O)C(c2cnc3ccccn23)=C1c1cn2c3c(cc(F)cc13)CN(C(=O)N1CCCCC1)CC2
In short, it runs like this:
as §1

Compound in another experiment: c1cn2cc(-c3ccc4cn[nH]c4c3)nc(Nc3ccc(N4CCOCC4)cc3)c2n1 [entospletinib]
In short, it runs like this:
as §1

Compound in experiment [2]: NCC(=O)Nc1ccc(-n2nc(C(F)(F)F)cc2-c2ccc3c(ccc4ccccc43)c2)cc1
In short, it runs like this:
as §1

This is one part of the list.

Turning to CROCC2 (UniProt H7BZ55), the log2 fold change with vorinostat was inactive: 0.094; with silmitasertib, inactive: -0.001; in experiment [1] it was inactive: 0.044; in the experiment with entospletinib, inactive: 0.009.

On to CSGALNACT2 (UniProt Q8N6G5), for which the log2 fold change with vorinostat is inactive: 0.151; in the experiment with silmitasertib, inactive: -0.04; in experiment [1], inactive: 0.027.

With CTNNBIP1 (UniProt Q9NSA3), the log2 fold change in the experiment with vorinostat is inactive: 0.072; in the experiment with silmitasertib, inactive: -0.127.

CTSF (UniProt Q9UBX1): the log2 fold change with vorinostat is inactive: 0; with silmitasertib, inactive: 0.104.

As to CROCCP2 (UniProt Q86T23), the log2 fold change with vorinostat was inactive: 0.065; with silmitasertib, inactive: 0.086; in experiment [1], inactive: -0.147; with entospletinib, inactive: 0.026.

For CYBC1 (UniProt Q9BQA9), the log2 fold change with vorinostat is inactive: 0; with silmitasertib, inactive: 0.024; in experiment [1] it was inactive: 0.015; in the experiment with entospletinib, inactive: -0.122.

For the target CTNS isoform 2 (UniProt O60931), the log2 fold change in experiment [2] was inactive: -0.099; in experiment [1], inactive: 0.02; in the experiment with entospletinib, inactive: 0.073.

Consider CUL9 (UniProt Q8IWT3), for which the log2 fold change with vorinostat is inactive: -0.11; in the experiment with silmitasertib, inactive: 0.047; in experiment [1] it was inactive: 0.23.

Consider CTDNEP1 (UniProt O95476), for which the log2 fold change in experiment [1] was inactive: -0.057.

CTTNBP2NL (UniProt Q9P2B4): the results for the log2 fold change (in experiment [2]; in experiment [1]; in the experiment with entospletinib) were inactive: 0, inactive: -0.001 and inactive: 0.059, respectively.

On to CTRB2 (UniProt Q6GPI1), for which the log2 fold change was inactive: -0.133 in experiment [2] and inactive: -0.022 with entospletinib.

Turning to CSRP2 (UniProt Q16527), the log2 fold change was inactive: 0.016 in experiment [1] and inactive: -0.132 in the experiment with entospletinib.

With CREM isoform 1 (UniProt Q03060), the log2 fold change in experiment [1] is inactive: -0.04.

Turning to CXCL14 (UniProt O95715), the results for the log2 fold change (in experiment [2]; with entospletinib) were inactive: 0.24 and inactive: 0.033, respectively.

As to CSDE1 isoform 3 (UniProt O75534), the log2 fold change in experiment [1] was inactive: -0.1.

CROT isoform 3 (UniProt Q9UKG9): the log2 fold change with vorinostat was inactive: 0.077; in the experiment with silmitasertib it was inactive: 0.018; in experiment [1] it was inactive: 0.045; with entospletinib it was inactive: 0.105.

Consider CST4 (UniProt P01036), for which the log2 fold change with vorinostat was inactive: -0.015; with silmitasertib, inactive: -0.25; with entospletinib it was inactive: -0.159.

Regarding CSNK1G1 (UniProt Q9HCP0), the figures for the log2 fold change with vorinostat, in the experiment with silmitasertib and with entospletinib were inactive: 0.203, inactive: -0.105 and inactive: 0.106, respectively.

Turning to CXorf40B (UniProt Q96DE9), the figures for the log2 fold change in experiment [2] and in experiment [1] were inactive: -0.099 and inactive: 0.116, respectively.

As to CSNK1D (UniProt P48730), the log2 fold change in experiment [2] was inactive: 0.002; in experiment [1] it was inactive: -0.002; in the experiment with entospletinib, inactive: -0.076.

For CSRNP2 (UniProt Q9H175), the log2 fold change with vorinostat is inactive: -0.02; in the experiment with silmitasertib, inactive: 0.097.

Take CTDSP1 (UniProt Q9GZU7): the log2 fold change in experiment [1] is inactive: 0.017.

On to CTSS (UniProt P25774), for which the results for the log2 fold change in the experiment with vorinostat, with silmitasertib and with entospletinib were inactive: 0.159, inactive: -0.052 and inactive: -0.002, respectively.

For CRYM (UniProt Q14894), the log2 fold change is inactive: 0.006 in experiment [2], inactive: -0.113 in experiment [1] and inactive: -0.009 with entospletinib.

On to CRLS1 (UniProt Q9UJA2), for which the log2 fold change in the experiment with vorinostat was active: -0.572; with silmitasertib, inactive: 0.172; in experiment [1] it was inactive: 0.036.

As for CREB3L2 (UniProt Q70SY1), the log2 fold change in experiment [2] is inactive: -0.089; with vorinostat it was inactive: 0.139; with silmitasertib it was inactive: -0.007; with entospletinib it was inactive: 0.026.

CRELD1 isoform 2 (UniProt Q96HD1): the log2 fold change is inactive: -0.045 in experiment [2], inactive: -0.014 with vorinostat, inactive: -0.05 in the experiment with silmitasertib and inactive: -0.039 with entospletinib.

For CSNK2A1 (UniProt P68400), the log2 fold change in experiment [2] was inactive: 0.15; in the experiment with vorinostat, inactive: 0.057; in experiment [1], inactive: -0.046; with entospletinib, inactive: 0.213.

On to CRIP2 isoform 2 (UniProt P52943), for which the results for the log2 fold change (with vorinostat; with silmitasertib; in experiment [1]) were inactive: 0.353, inactive: 0.544 and inactive: 0.074, respectively.

Regarding CTSG (UniProt P08311), the log2 fold change with vorinostat was inactive: 0.002; in the experiment with silmitasertib, inactive: -0.136; in experiment [1], inactive: -0.208.

On to CYLD (UniProt Q9NQC7), for which the log2 fold change is inactive: -0.242 in the experiment with vorinostat, inactive: 0.273 with silmitasertib and inactive: 0.06 in experiment [1].

Take CWC25 (UniProt Q9NXE8): the log2 fold change is inactive: 0.052 in experiment [2], inactive: 0.157 in experiment [1] and inactive: 0 in the experiment with entospletinib.

Consider CS (UniProt F8VU34), for which the log2 fold change with vorinostat is inactive: 0.053; with silmitasertib, inactive: 0.008.

On to CRAMP1 (UniProt Q96RY5), for which the values for the log2 fold change (in experiment [2]; with entospletinib) were inactive: -0.166 and inactive: -0.077, respectively.

For the origin of these results see the supplement of paper PMC10849652.
